# Reference: patent US5410052A, “Symmetrical and unsymmetrical polyalkylamine metal complexes for ligand extraction and generation” (The Regents of the University of California, priority 1990, dated 1995)
# Assay: Electrochemical oxygen cell (EOC) results for cobalt carrier compounds
# Conditions: cobalt complex
# Description: One apparatus for bench-scale or laboratory-scale evaluation of particular carrier compounds for use in practicing the methods according to the invention is illustrated schematically in FIG. 8. The electrochemical oxygen cell (EOC), designated 20, includes generally an oxygen loader 22, an electrochemical cell 24 having an anode compartment 26 and a cathode compartment 28 separated by an ion-permeable membrane 30, and an unloader 32. Carrier fluid is circulated through loader 22, anode compartment 26, unloader 32, cathode compartment 28 and back to loader 22 using the pump 34 with appropriate plastic or glass conduit.
# The carrier fluids suitable for use in, for example, electrochemical oxygen cell 20 comprise a carrier compound in a concentration between about 1 mM and 500 mM, usually between about 10 mM and 300 mM, usually between about 50 mM and about 200 mM. Carrier fluids comprising carrier compounds according to the present invention are preferably aqueous and include additional an electrolyte, e.g., sodium chloride, potassium chloride, sodium nitrate, potassium sulfate, at a concentration of between about 0.1M (moles/liter) and about 1.0M usually about 0.5M. The carrier fluids may be titrated or buffered to the desired pH. Buffer salts such as sodium borate, potassium phosphate, sodium phosphate, etc., may be used depending upon the pH desired, the availability of particular salts, and compatibility of particular buffer salts with particular carrier compounds. The buffer salts(s) are generally present in concentrations of between 10 mM and about 0.5M, usually between 50 mM and 100 mM.
# Loader 22 is, for example a microporous hydrophobic hollow fiber membrane array such as that which will be described more fully below in connection with FIG. 9. Suitable membrane arrays are manufactured by Bard Cardiosurgery. Inc. of Concord, Calif. These membrane arrays are typically modified to allow fluid flow both inside and outside the hollow fibers in a manner that will be apparent to those skilled in the art.
# Cell 24 includes a pair of titanium current collector plates 36, 38, which press against two electrodes 40, 42. Typically, electrodes 40, 42 are carbon felt electrodes, in one example of the cell 24 having dimensions of about 25 cm×10 cm.×0.5 cm. Electrodes 40, 42, and thus anode compartment 26 is cathode compartment 28, are separated by membrane 30 which is an ion-permeable membrane made, for example, of Nafion (sold by DuPont). Cell 24 is assembled in a plexiglass housing (not separately shown) having two halves which are bolted together and sealed with an O-ring or gasket seal (not shown). Cell 24 includes the necessary ports for introducing and removing carrier fluids from anode compartment 26 cathode compartment 28. Cell 24 further includes ports for insertion of reference electrodes 44, 46 which are conveniently, but not necessarily silver-silver chloride reference electrodes. Current collector plates 36, 38 are connected via titanium posts 48, 50 to a potentiostat (not shown) capable of supplying either a constant or a variable current or voltable to cell 24. Suitable potentiostats are available for example, from Princeton Applied Research, Princeton, N.J. Unloader 32, in the embodiment shown in FIG. 8 includes a cylindrical fluid gas separation chamber 52, equipped with a nitrogen sweep gas bubbler 54 near the bottom thereof and an exit port at the top thereof. Alternatively, unloader 32 may be a hollow fiber device such as that described above in connection with loader 22.
# In operation, carrier fluid is circulated through loader 22 where it is exposed, through the ligand-permeable membrane, to the fluid from which oxygen is to be extracted. In the typical laboratory-scale electrochemical oxygen cell 20, carrier fluid of oxygenated using air as the external fluid. […]
# [1] = 10 mM PAA, 30 mL/min, pH 3, 0.9 V
# [2] = 10 mM PAA, 30 mL/min, pH 3, 1.6 V
# [3] = 75 mM PAA, 95 mL/min, pH 5, 0.5 V
# [4] = 100 mM PAA, 30 mL/min, pH 4, 0.9 V
# [5] = 100 mM PAA, 30 mL/min, pH 4, 1.6 V
# [6] = 100 mM PAA, 100 mL/min, pH 4, 0.5 V
# [7] = 100 mM PAA, 120 mL/min, pH 4, 1.6 V
# [8] = 162 mM PAA, 68 mL/min, pH 3, 0.5 V
# [9] = 10 mM PAA, 30 mL/min, pH 7, 0.9 V
# [10] = 10 mM PAA, 30 mL/min, pH 7, 1.6 V
# [11] = 150 mM PAA, 58 mL/min, pH 9.18, 0.5 V
# [12] = 150 mM PAA, 146 mL/min, pH 9.18, 0.5 V
# [13] = 167 mM PAA, 138 mL/min, pH 10.12, 0.5 V
smiles,measurement,setting,value
c1ccc(CNCCNCCNCc2ccccn2)nc1 [compound 62],EC O2 (electrochemical oxygen production rate),[1],0.143 mL/min
same,Power consumed,[1],178 W/L/min.
same,e-/O2 (electrons passed per molecule of O2 produced),[1],2.5
same,EC O2 (electrochemical oxygen production rate),[2],0.5 mL/min
same,Power consumed,[2],580 W/L/min.
same,e-/O2 (electrons passed per molecule of O2 produced),[2],4.9
same,EC O2 (electrochemical oxygen production rate),[3],0.081 mL/min
same,Power consumed,[3],86.2 W/L/min.
same,e-/O2 (electrons passed per molecule of O2 produced),[3],2.4
same,EC O2 (electrochemical oxygen production rate),[4],1.15 mL/min
same,Power consumed,[4],158 W/L/min.
same,e-/O2 (electrons passed per molecule of O2 produced),[4],2.3
same,EC O2 (electrochemical oxygen production rate),[5],1.7 mL/min
same,Power consumed,[5],550 W/L/min.
same,e-/O2 (electrons passed per molecule of O2 produced),[5],4.8
same,EC O2 (electrochemical oxygen production rate),[6],0.082 mL/min
same,Power consumed,[6],99.2 W/L/min.
same,e-/O2 (electrons passed per molecule of O2 produced),[6],2.5
same,EC O2 (electrochemical oxygen production rate),[7],3.76 mL/min
same,Power consumed,[7],260 W/L/min.
same,e-/O2 (electrons passed per molecule of O2 produced),[7],2.3
same,EC O2 (electrochemical oxygen production rate),[8],0.133 mL/min
same,Power consumed,[8],99.5 W/L/min.
same,e-/O2 (electrons passed per molecule of O2 produced),[8],2.7
c1ccc(CNCCCNCCCNCc2ccccn2)nc1 [compound 64],EC O2 (electrochemical oxygen production rate),[9],0.104 mL/min
same,Power consumed,[9],854 W/L/min.
same,e-/O2 (electrons passed per molecule of O2 produced),[9],13
same,EC O2 (electrochemical oxygen production rate),[10],0.279 mL/min
same,Power consumed,[10],570 W/L/min.
same,e-/O2 (electrons passed per molecule of O2 produced),[10],5.15
same,EC O2 (electrochemical oxygen production rate),[11],0.194 mL/min
same,Power consumed,[11],108 W/L/min.
same,e-/O2 (electrons passed per molecule of O2 produced),[11],2.9
same,EC O2 (electrochemical oxygen production rate),[12],0.259 mL/min
same,Power consumed,[12],100 W/L/min.
same,e-/O2 (electrons passed per molecule of O2 produced),[12],2.85
same,EC O2 (electrochemical oxygen production rate),[13],0.341 mL/min
same,Power consumed,[13],99.5 W/L/min.
same,e-/O2 (electrons passed per molecule of O2 produced),[13],2.75
